PubChem BioAssay AID1671195 – Yale University | 2021
Aim: 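Regulators of LDL receptor activity judged by labelled LDL uptake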 (primary screen). Cell system: human Huh7 hepatoma cells. Reagents: siRNA pool against human genes, 18 nM. Duration: about 2 to 2.5 days of knockdown, then 8 h LDL uptake. Treatment: DiI-labelled LDL at 30 µg/ml for 8 h, in lipoprotein-deficient serum medium. Read-out: 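Fluorescent LDL signal imaged in cells, scaled to the plate median, robust z-score for each replicate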. Direction: robust z-score: higher = more LDL uptake after knockdown. Rule for the call: 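Active when two or more replicates show a robust z-score above 2 or below -2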.
In all, the deposit lists about 22,000 reagents; below is a part drawn at random. About 1,510 of all reagents (6.9%) count as active. 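Active includes knockdowns raising or lowering LDL uptake; positive z-scores mean more uptake, negative mean less.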 No sequences are given here.

| gene | robust z-score, replicate 1 | robust z-score, replicate 2 | robust z-score, replicate 3 | outcome |
| --- | --- | --- | --- | --- |
| CCDC188 (GeneID 388849) | -0.0784 | -0.455 | 0.332 | inactive |
| DCTN1 (GeneID 1639) | -0.114 | -1.13 | -0.868 | inactive |
| LRRC61 (GeneID 65999) | 0.165 | 0.681 | 0.412 | inactive |
| SLC25A5 (GeneID 292) | -0.153 | -0.246 | -0.269 | inactive |
| DR1 (GeneID 1810) | 1.61 | -0.0537 | 0.496 | inactive |
| NIPSNAP3B (GeneID 55335) | -0.961 | -1.22 | -0.76 | inactive |
| DCAF4L2 (GeneID 138009) | -0.0371 | 2.95 | -0.172 | inactive |
| SAMD7 (GeneID 344658) | 0.871 | 1.6 | -0.381 | inactive |
| PREPL (GeneID 9581) | 0.455 | 0.417 | 0.989 | inactive |
| CXCL6 (GeneID 6372) | 0.763 | 1.08 | 1 | inactive |
| C6orf120 (GeneID 387263) | 1.31 | 1.51 | 1.03 | inactive |
| RABGGTA (GeneID 5875) | -0.226 | -0.403 | -0.11 | inactive |
| PLPP2 (GeneID 8612) | -0.506 | 0.041 | -0.425 | inactive |
| LOC440803 (retired record) (GeneID 440803) | -0.648 | -1.04 | -1.01 | inactive |
| DSCAM (GeneID 1826) | -0.848 | 0.252 | 0.102 | inactive |
| CPT1C (GeneID 126129) | -2.5 | 0.0418 | -0.191 | inactive |
| ARL8B (GeneID 55207) | 1.31 | 0.7 | -0.172 | inactive |
| TMED2 (GeneID 10959) | -0.654 | 0.291 | -1.43 | inactive |
| OR4C3 (GeneID 256144) | -1.52 | -1.35 | -1.31 | inactive |
| LNX2 (GeneID 222484) | 0.346 | 0.681 | 0.0992 | inactive |
| NPTX2 (GeneID 4885) | 0.197 | -0.414 | 0.405 | inactive |
| NKAP (GeneID 79576) | 0.0309 | -0.131 | -0.0749 | inactive |
| ETNPPL (GeneID 64850) | 3.91 | 3.47 | 3.86 | active |
| SNX33 (GeneID 257364) | -1.14 | -0.952 | -1.27 | inactive |
| PCK2 (GeneID 5106) | -0.721 | -1.33 | -0.638 | inactive |
| LOC286441 (retired record) (GeneID 286441) | 1.68 | 1.88 | 1.34 | inactive |
| FRMPD4 (GeneID 9758) | -0.586 | -1.29 | -1.01 | inactive |
| POMT2 (GeneID 29954) | 0.545 | 0.324 | 0.704 | inactive |
